Measurements as given in patent US20050042603A1, “Compositions and methods for peptide-assisted transfection” (Allele Biotechnology & Pharmaceuticals, Inc., priority 2003, published 2005).
Not every detail of the peptide structures is certain; ends, links or a residue may be inferred. Ends that are not written are not given here.

How the values were obtained:
[1] = system: approximately 300 bp PCR product linear dsDNA; assay: Band-shift assay with short linear dsDNA (siRNA-expressing PCR product); assay type: binding; conditions: 30 min reaction, 2% gel
Description: In order to examine whether TAN could directly interact with the transfected plasmid DNA as predicted by the transfection results, band-shift assays were performed. Different amount of TAN (SEQ ID NO:3) dissolved in H2O was mixed with 0.5 μg of plasmid with or without 15 mM CaCl2, incubated for 5 min, followed by addition of 2 μl of DNA loading dye (30% glycerol), and loaded to 0.7% agarose gel. The EB-containing gel was run for about 45 min at 120 volts before the picture taken under UV lights.
The ability of TAN (SEQ ID NO:3) to bind short linear dsDNA also was examined. The DNA tested was an approximately 300 bp PCR product that is used to express small interfering RNAs (siRNAs). The experiments were done similarly to those described in Example 6, except that the reactions were allowed to proceed to 30 min and the gel was 2%. […] This difference may be due to a difference in the relative amount of DNA in each type of complex or to the structural constrains of linear versus circular DNA. […] Because these cassettes express siRNAs under the control of Pol III promoter as apposed to Pol II in GFP expression unit, it is therefore likely that peptide assisted transfection (PAT) is independent of promoter used, as expected.

293T cells [2] = assay type: cell-based, human
Description: 293T (human embryonic kidney) cells were grown in Dulbecco's modified Eagle's medium (Life Technologies, Rockville, Md.) supplemented with 10% FBS, 100 units/ml penicillin, and 100 μg/ml of streptomycin in a 37° C. CO2 incubator. Cells were regularly passed to maintain growth. Twenty-four hours before transfection, cells were trypsinized and plated on 96-well plates (100 μl/well) in the above medium without the antibiotics. Ten μl of fraction 2 was added to 293T cells at 15% confluency in serum-containing medium. Fluorescence microscopy was performed at 12 hours, after changing medium and washing cells.
TAN (SEQ ID NO:3) at 0.1 to 5 μg per 96-well transfection was mixed with 0.1 μg plasmid pEGFP-N1 (BD ClonTech) for 5 min, diluted in 40 μl DMEM, then added to cells. Fluorescence microscopy was performed at different time points to observe the expression of GFP as the indication of transfection event. Note that by using GFP as reporter, the total transfection efficiency was underestimated due to certain percentage of cells would not express the GFP to levels high enough for detection.
Different concentrations of TAN (SEQ ID NO:3) and CaCl2 were tested in combination for transfection. TAT (SEQ ID NO:1) and another peptide, HT 31 (a widely used PKA-anchor interaction interruption peptide) were included as controls. Generally, experiments were performed similarly as in the above examples except that peptide was added to DNA first, followed by addition of CaCl2.

293T cells [3] = assay: Peptide as additive to TransIt-Oligo reagent transfection, GFP expression; assay type: cell-based, human; conditions: 5 μg peptide added to DNA before 0.5 μl TransIt-Oligo reagent
plasmid DNA = assay: Band-shift assay with plasmid DNA (agarose gel); assay type: binding; conditions: 0.5 μg plasmid
3T3-L1 cells = assay: Peptide as additive to TransIt-Oligo reagent transfection of difficult-to-transfect cells; assay type: cell-based; conditions: 24-well plate, 15 days post-induction
[4] = system: siRNA-expressing cassettes (RNAi); assay: Transfection of siRNA-expressing cassettes for gene silencing; assay type: cell-based; conditions: peptide used in transfection of siRNA-expressing cassettes
[5] = system: 293T (human embryonic kidney) cells; assay: Transduction of fluorescein-labelled peptide into cells (fluorescence microscopy); assay type: cell-based; conditions: 10 μl of fraction 2, serum-containing medium, microscopy at 12 hours
[6] = system: monkey kidney cell Vero-E6; assay: Peptide as additive to TransIt-Oligo reagent transfection of pEFGP-N1; assay type: cell-based; conditions: 0.1 μg plasmid, 96-well, about 30% confluency, increasing amount of peptide
[7] = time course of complex formation

For YGRKKRRQRRRGQRNPNKKWS [TAN], the “Binding to linear dsDNA (band shift)” value [1] was “bind to the linear dsDNA in a dose-dependent manner”, the “Transfection (fraction of cells transfected)” value (293T cells [2]; Ca++ supplied in the transfection reaction using CaCl2) was “transfection of nearly all of the cells in the culture” and the “Effect of inclusion of phosphate on transfection” value (293T cells [2]; TAN in PBS versus desalted H2O) was “decreased transfection efficiency”. For the same sequence, the Transfection efficiency (293T cells [2]; as little as 0.1 μg peptide, 15 mM calcium) was “high transfection efficiency”, the “Transfection (reporter gene expression)” value (293T cells [2]; peptide mixed with plasmid DNA in water-only reaction, no calcium) was “a few cells expressed the reporter gene” and the “Incubation time at which transfection effect peaks” value (293T cells [2]; [7]) was at most 5 min. For the same sequence, the “Incubation time of TAN-DNA-Ca++ complex to reach highest transfection effect” value (293T cells [2]; [7]) was at most 1 min, the “Reporter (GFP) expression level versus other transfection methods” value (293T cells [2]; with Ca++) was “express the reporter gene to a higher level” and the “GFP expression versus control peptides” value (293T cells [3]) was “Several fold higher”. The “Effect of calcium ion on peptide-DNA complex band” value (plasmid DNA; 15 mM CaCl2) was “the complex became more intense”, the “Band shift of plasmid (compaction)” value (plasmid DNA; without CaCl2) was “a certain amount of plasmid migrated more quickly” and the “Brightness of GFP-transfected cells versus without peptide” value (3T3-L1 cells) was “much brighter”. The “Total number of GFP-positive cells in presence of peptide” value (3T3-L1 cells) was “did not appear to increase”, the “Effect on RNAi (gene silencing)” value [4] was “enhanced the RNAi effects” and the “Cell entry of fluorescein-labelled peptide (fluorescence in cells)” value [5] was “Fluorescence was observed throughout the transducted cells”. For the same sequence, the “Enhancement of TransIt-Oligo transfection by peptide” value [6] was “the transfected cells were more prominent”.
